# Test results from the supplement of paper PMC8728848.
# The other results are listed elsewhere or left out.
# Tests used:
# Assay in all cases: glycan array binding signal (z-score within array); higher = stronger binding
# Settings in all cases: glycan notation: IUPAC condensed, linker removed
# Fuc(a1-2)Gal = target: Fuc(a1-2)Gal
# Procedure, shortened: (§1)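 From the Consortium for Functional Glycomics database, 3228 arrays were curated, keeping only those whose protein sequence was available. Binding is given as a within-array Z-score averaged across arrays sharing a protein sequence and across linkers. Negative Z-scores can be read as non-binding.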
# Fuc(a1-2)Gal(b1-3)GalNAc = target: Fuc(a1-2)Gal(b1-3)GalNAc
# Procedure, shortened: as §1
# [1] = target: Fuc(a1-2)Gal(b1-3)GalNAc(a1-3)[Fuc(a1-2)]Gal(b1-4)Glc
# Procedure, shortened: as §1
# [2] = target: Fuc(a1-2)Gal(b1-3)GalNAc(a1-3)[Fuc(a1-2)]Gal(b1-4)GlcNAc
# Procedure, shortened: as §1
# [3] = target: Fuc(a1-2)Gal(b1-3)GalNAc(b1-3)Gal
# Procedure, shortened: as §1
# [4] = target: Fuc(a1-2)Gal(b1-3)GalNAc(b1-3)Gal(a1-4)Gal(b1-4)Glc
# Procedure, shortened: as §1
# [5] = target: Fuc(a1-2)Gal(b1-3)GalNAc(b1-4)[Neu5Ac(a2-3)]Gal(b1-4)Glc
# Procedure, shortened: as §1
# Fuc(a1-2)Gal(b1-3)GlcNAc = target: Fuc(a1-2)Gal(b1-3)GlcNAc
# Procedure, shortened: as §1
# [6] = target: Fuc(a1-2)Gal(b1-3)GlcNAc(b1-2)Man(a1-3)[Fuc(a1-2)Gal(b1-3)GlcNAc(b1-2)Man(a1-6)]Man(b1-4)GlcNAc(b1-4)GlcNAc
# Procedure, shortened: as §1
# [7] = target: Fuc(a1-2)Gal(b1-3)GlcNAc(b1-2)Man(a1-3)[Fuc(a1-2)Gal(b1-3)GlcNAc(b1-2)Man(a1-6)]Man(b1-4)GlcNAc(b1-4)[Fuc(a1-6)]GlcNAc
# Procedure, shortened: as §1
# [8] = target: Fuc(a1-2)Gal(b1-3)GlcNAc(b1-3)Gal(b1-4)Glc
# Procedure, shortened: as §1
# [9] = target: Fuc(a1-2)Gal(b1-3)GlcNAc(b1-3)GalNAc
# Procedure, shortened: as §1
# [10] = target: Fuc(a1-2)Gal(b1-3)GlcNAc(b1-3)[Fuc(a1-2)Gal(b1-3)GlcNAc(b1-6)]GalNAc
# Procedure, shortened: as §1
# [11] = target: Fuc(a1-2)Gal(b1-3)GlcNAc(b1-3)[Gal(b1-4)GlcNAc(b1-6)]Gal(b1-4)Glc
# Procedure, shortened: as §1
# [12] = target: Fuc(a1-2)Gal(b1-3)GlcNAc(b1-3)[Neu5Ac(a2-6)Gal(b1-4)GlcNAc(b1-6)]Gal(b1-4)Glc
# Procedure, shortened: as §1
# [13] = target: Fuc(a1-2)Gal(b1-3)GlcNAc6S
# Procedure, shortened: as §1
# [14] = target: Fuc(a1-2)Gal(b1-3)[Fuc(a1-4)]GlcNAc
# Procedure, shortened: as §1
# [15] = target: Fuc(a1-2)Gal(b1-3)[Fuc(a1-4)]GlcNAc(b1-2)Man(a1-3)[Fuc(a1-2)Gal(b1-3)[Fuc(a1-4)]GlcNAc(b1-2)Man(a1-3)]Man(b1-4)GlcNAc(b1-4)GlcNAc
# Procedure, shortened: as §1
# [16] = target: Fuc(a1-2)Gal(b1-3)[Fuc(a1-4)]GlcNAc(b1-2)Man(a1-3)[Fuc(a1-2)Gal(b1-3)[Fuc(a1-4)]GlcNAc(b1-2)Man(a1-6)]Man(b1-4)GlcNAc(b1-4)[Fuc(a1-6)]GlcNAc(b1-4)[Fuc(a1-6)]GlcNAc
# Procedure, shortened: as §1
# [17] = target: Fuc(a1-2)Gal(b1-3)[Fuc(a1-4)]GlcNAc(b1-3)[Fuc(a1-3)[Gal(b1-4)]GlcNAc(b1-6)]Gal(b1-4)Glc
# Procedure, shortened: as §1
# [18] = target: Fuc(a1-2)Gal(b1-3)[Fuc(a1-4)]GlcNAc(b1-3)[Gal(b1-4)GlcNAc(b1-6)]Gal(b1-4)Glc
# Procedure, shortened: as §1
# [19] = target: Fuc(a1-2)Gal(b1-4)Fuc(a1-3)]GlcNAc(b1-2)Man(a1-3)[Fuc(a1-2)Gal(b1-4)[Fuc(a1-3)]GlcNAc(b1-2)Man(a1-6)]Man(b1-4)GlcNAc(b1-4)GlcNAc
# Procedure, shortened: as §1
# Fuc(a1-2)Gal(b1-4)Glc = target: Fuc(a1-2)Gal(b1-4)Glc
# Procedure, shortened: as §1
# Fuc(a1-2)Gal(b1-4)Glc6S = target: Fuc(a1-2)Gal(b1-4)Glc6S
# Procedure, shortened: as §1
# Fuc(a1-2)Gal(b1-4)GlcNAc = target: Fuc(a1-2)Gal(b1-4)GlcNAc
# Procedure, shortened: as §1
# [20] = target: Fuc(a1-2)Gal(b1-4)GlcNAc(b1-2)Man
# Procedure, shortened: as §1
# [21] = target: Fuc(a1-2)Gal(b1-4)GlcNAc(b1-2)Man(a1-3)[Fuc(a1-2)Gal(b1-4)GlcNAc(b1-2)Man(a1-6)]Man(b1-4)GlcNAc(b1-4)GlcNAc
# Procedure, shortened: as §1
# [22] = target: Fuc(a1-2)Gal(b1-4)GlcNAc(b1-2)Man(a1-3)[Fuc(a1-2)Gal(b1-4)GlcNAc(b1-2)Man(a1-6)]Man(b1-4)GlcNAc(b1-4)[Fuc(a1-6)]GlcNAc
# Procedure, shortened: as §1
# [23] = target: Fuc(a1-2)Gal(b1-4)GlcNAc(b1-2)[Fuc(a1-2)Gal(b1-4)GlcNAc(b1-4)]Man(a1-3)[Fuc(a1-2)Gal(b1-4)GlcNAc(b1-2)Man(a1-6)]Man(b1-4)GlcNAc(b1-4)GlcNAc
# Procedure, shortened: as §1
# [24] = target: Fuc(a1-2)Gal(b1-4)GlcNAc(b1-3)Gal(b1-4)GlcNAc
# Procedure, shortened: as §1
binder,measurement,setting,value
"BT4246 (Bacteroides thetaiotaomicron), Q89ZX5 (protein) MGSSHHHHHHENLYFQGHMASDYLDVVPPEQPNIDDAMSSPTRALGFLYSCYGGVSTDLPSAYLGEINSTTDEYVLPYSWNTDGYWGAYAFNTASSTNQDWLWGTTYQYIGQCYLFLQKLENAGSDIASDAEKEQWRAECQFLVAYYHFATLRRYGPIPITDSYIPMDTPTSEYNGRFHFDYCVDWIANQLDEAAKVLPANRTVTNEWGRATSTIAKAVKARLLLYAASPLWNGSFPYPNWQNENFETPGYGKALVSNTYDKSKWERALAACQEALTLATTSGDRELYDDDEYYSRQSLNLPFVPGVADVEDNKEFLKNVMKMRYAVSTRESEGNKEIIWGLSNQFDFYSRYPLRILKKSDGTWHAGYSGVSPTLYTFEHFYTANGKLPEKDLDFTPSSEWFESAGISSREDIIKLNVGREPRFYAWMAFDGGDYGTKFAAGSPLKLEMRNSEMHGYNPSLFNRDHSVTGFLTQKFVDPVTEFYTAGGSTSGTSAPTILFRLAELYLNVAECHAALGNTQEAIDALNPVRERAGIPKLTLADITNNMTIKDWVHNERFVELWNEGHRFFDVRRWAEGAKYFGANKREGLNAEVQSPTFEEFNKRTTVDAPYVWENRMYLNPVFYNEVYKNPQMVQAPGY",glycan array binding signal (z-score),Fuc(a1-2)Gal,1.69
same,glycan array binding signal (z-score),Fuc(a1-2)Gal(b1-3)GalNAc,0.079
same,glycan array binding signal (z-score),[1],-0.105
same,glycan array binding signal (z-score),[2],0.752
same,glycan array binding signal (z-score),[3],-1.02
same,glycan array binding signal (z-score),[4],-0.071
same,glycan array binding signal (z-score),[5],-0.239
same,glycan array binding signal (z-score),Fuc(a1-2)Gal(b1-3)GlcNAc,1.08
same,glycan array binding signal (z-score),[6],3.2
same,glycan array binding signal (z-score),[7],0.162
same,glycan array binding signal (z-score),[8],1.29
same,glycan array binding signal (z-score),[9],-1.72
same,glycan array binding signal (z-score),[10],2.27
same,glycan array binding signal (z-score),[11],-0.152
same,glycan array binding signal (z-score),[12],0.083
same,glycan array binding signal (z-score),[13],-1.03
same,glycan array binding signal (z-score),[14],1.98
same,glycan array binding signal (z-score),[15],0.438
same,glycan array binding signal (z-score),[16],-0.111
same,glycan array binding signal (z-score),[17],-0.196
same,glycan array binding signal (z-score),[18],-1.26
same,glycan array binding signal (z-score),[19],-0.343
same,glycan array binding signal (z-score),Fuc(a1-2)Gal(b1-4)Glc,-1.61
same,glycan array binding signal (z-score),Fuc(a1-2)Gal(b1-4)Glc6S,-1.11
same,glycan array binding signal (z-score),Fuc(a1-2)Gal(b1-4)GlcNAc,-0.178
same,glycan array binding signal (z-score),[20],-0.415
same,glycan array binding signal (z-score),[21],0.648
same,glycan array binding signal (z-score),[22],-1.02
same,glycan array binding signal (z-score),[23],1.64
same,glycan array binding signal (z-score),[24],0.017

# Pulled one by one from the list above (two):
binder,measurement,setting,value
"BT4246 (Bacteroides thetaiotaomicron), Q89ZX5 (protein) MGSSHHHHHHENLYFQGHMASDYLDVVPPEQPNIDDAMSSPTRALGFLYSCYGGVSTDLPSAYLGEINSTTDEYVLPYSWNTDGYWGAYAFNTASSTNQDWLWGTTYQYIGQCYLFLQKLENAGSDIASDAEKEQWRAECQFLVAYYHFATLRRYGPIPITDSYIPMDTPTSEYNGRFHFDYCVDWIANQLDEAAKVLPANRTVTNEWGRATSTIAKAVKARLLLYAASPLWNGSFPYPNWQNENFETPGYGKALVSNTYDKSKWERALAACQEALTLATTSGDRELYDDDEYYSRQSLNLPFVPGVADVEDNKEFLKNVMKMRYAVSTRESEGNKEIIWGLSNQFDFYSRYPLRILKKSDGTWHAGYSGVSPTLYTFEHFYTANGKLPEKDLDFTPSSEWFESAGISSREDIIKLNVGREPRFYAWMAFDGGDYGTKFAAGSPLKLEMRNSEMHGYNPSLFNRDHSVTGFLTQKFVDPVTEFYTAGGSTSGTSAPTILFRLAELYLNVAECHAALGNTQEAIDALNPVRERAGIPKLTLADITNNMTIKDWVHNERFVELWNEGHRFFDVRRWAEGAKYFGANKREGLNAEVQSPTFEEFNKRTTVDAPYVWENRMYLNPVFYNEVYKNPQMVQAPGY",glycan array binding signal (z-score),Fuc(a1-2)Gal(b1-3)GalNAc,0.079
same,glycan array binding signal (z-score),[16],-0.111
